Laboratory results: the supplement of paper PMC12823440, “Inhibitors supercharge kinase turnover through native proteolytic circuits” (Nature, 2025)
Where a name gives a salt, the structure may show the parent alone. This is one part of the list. The calls rarely recur for the same compound in another form.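 Kinases were expressed as nanoluciferase fusions in K562 cells and luminescence was read every 4 h between 2 and 18 h as percent of control, DMSO set to 100% and a positive control to 0%. A time point counts as decreased when the signal drops significantly (2 sigma). The hit call is the authors' own, does not follow from the count of time points alone, and its rule is not shown.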

By UniProt entry, the sequences of proteins in these tests, tags left out. Where a name states a change or a piece, a line headed by the entry shows the natural chain unless it says otherwise.
UniProt P48730: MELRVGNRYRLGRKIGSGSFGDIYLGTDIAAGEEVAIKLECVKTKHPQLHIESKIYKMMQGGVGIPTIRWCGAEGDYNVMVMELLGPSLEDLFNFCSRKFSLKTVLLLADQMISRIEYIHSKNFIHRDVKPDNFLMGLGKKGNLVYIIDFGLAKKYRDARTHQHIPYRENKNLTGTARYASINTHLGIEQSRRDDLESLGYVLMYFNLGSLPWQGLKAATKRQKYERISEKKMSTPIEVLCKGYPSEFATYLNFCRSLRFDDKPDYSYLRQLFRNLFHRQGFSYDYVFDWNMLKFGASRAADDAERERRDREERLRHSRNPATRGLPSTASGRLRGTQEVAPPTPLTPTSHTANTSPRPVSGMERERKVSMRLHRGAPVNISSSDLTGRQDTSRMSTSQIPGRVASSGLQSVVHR

molecular target: CSNK1D (UniProt P48730); test: kinase-Nluc reporter destabilization hit call (1 = scored as downregulated) (binary); higher = compound decreases kinase abundance; settings: K562; 2-18 h

kinase-Nluc reporter destabilization hit call, inactive:
CC#CC(=O)N[C@H]1CCCN(c2c(F)cc(C(N)=O)c3[nH]c(C)c(C)c23)C1 [Branebrutinib] (10 µM) 0
O=C1NC(=NCc2cccs2)S/C1=C\c1ccc2ncccc2c1 (10 µM) 0
Cn1c(=O)n(-c2ccc(C(C)(C)C#N)cc2)c2c3cc(-c4cnc5ccccc5c4)ccc3ncc21 [Dactolisib (Tosylate)] (10 µM) 0
COC(=O)c1ccc2c(C(=Nc3ccc(N(C)C(=O)CN4CCN(C)CC4)cc3)c3ccccc3)c(O)[nH]c2c1 [Nintedanib] (2.5 µM) 0
COc1cc2ncnc(Nc3ccc(O)cc3)c2cc1OC (10 µM) 0
O=C(c1ccc(-c2ccc(Cl)cc2)o1)N(Cc1ccccn1)c1ccc(N2CCNCC2)cc1 [MK2-IN-1 (hydrochloride)] (10 µM) 0
CN1CCN(S(=O)(=O)c2ccc(-c3cnc(N)c(C(=O)Nc4cccnc4)n3)cc2)CC1 (10 µM) 0
CN(C)C[C@@H]1CCn2cc(c3ccccc32)C2=C(C(=O)NC2=O)c2cn(c3ccccc23)CCO1 [Ruboxistaurin (hydrochloride)] (10 µM) 0
COc1ccc(Oc2cc(NCCC(F)(F)F)c3ncc(-c4ccc(C(=O)NC5CC5)c(C)c4)n3n2)c(F)c1F (2.5 µM) 0
CCCCNc1ncc(-c2ccc(CN3CCOCC3)cn2)c(NC2CCC(O)CC2)n1 (centres undefined) (10 µM) 0
O=C(Nc1cc(C(F)(F)F)ccc1N1CCN(Cc2ccccn2)CC1)c1ccc(-c2ccncc2)o1 (10 µM) 0
CC(C)(/C=C(\C#N)C(=O)N1CCC[C@@H](n2nc(-c3ccc(Oc4ccccc4)cc3F)c3c(N)ncnc32)C1)N1CCN(C2COC2)CC1 (2.5 µM) 0
CNC(=O)c1cccc2cc(Oc3ccnc4cc(OCC5(N)CC5)c(OC)cc34)ccc12 [Lucitanib] (10 µM) 0
COc1cc(F)cc([C@@H](CO)NC(=O)[C@@H](C)N2Cc3ccc(-c4nc(NC5CCOCC5)ncc4Cl)cc3C2=O)c1 [ERK1/2 inhibitor 2] (10 µM) 0
O=c1cc(-c2ccccc2)oc2c(O)c(O)ccc12 [7,8-Dihydroxyflavone] (10 µM) 0
C=CC(=O)N1CC[C@H](n2nc(C#Cc3cc(OC)cc(OC)c3)c3c(N)ncnc32)C1 [Futibatinib] (10 µM) 0
O=C1Nc2ccccc2/C1=C/c1ccc(F)cc1 (10 µM) 0
CN(C)Cc1ccc(-c2cnn3c(-c4cccc(NC(=O)c5cccc(C(F)(F)F)c5)c4)ccnc23)cc1 (2.5 µM) 0
Cc1c[nH]c(/C=C2\C(=O)Nc3ccccc32)c1CCC(=O)O (10 µM) 0
CC(C)c1ccc2oc3nc(N)c(C(=O)O)cc3c(=O)c2c1 [Amlexanox] (10 µM) 0
NS(=O)(=O)c1ccc(Nc2nc(OCC3CCCCC3)c3[nH]cnc3n2)cc1 (10 µM) 0
Cn1nc(C(C)(C)C)cc1NC(=O)Nc1ccc(Oc2ccncc2)cc1 (10 µM) 0
COc1ccc(F)c(F)c1C(=O)c1cnc(NC2CCN(S(C)(=O)=O)CC2)nc1N (2.5 µM) 0
COc1cc(C(=O)NC2CCN(C)CC2)ccc1Nc1ncc2c(n1)N(C1CCCC1)CC(F)(F)C(=O)N2C (10 µM) 0
CCN1C(=O)N(c2c(F)c(OC)cc(OC)c2F)Cc2cnc3[nH]c(CN4CCOCC4)cc3c21 [Pemigatinib] (10 µM) 0
COc1cc(Oc2ccnc3cc(OC)c(OC)cc23)ccc1NC(=O)NC(C)c1nccs1 (centres undefined) (2.5 µM) 0
C=CC(=O)N1C[C@H](Nc2ncnc3[nH]ccc23)CC[C@@H]1C [Ritlecitinib] (10 µM) 0
CC(C)(C)S(=O)(=O)c1cc2c(Nc3ccc4scnc4c3)ncnc2cc1OCCO (2.5 µM) 0
O=C(NOC[C@H](O)CO)c1ccc(F)c(F)c1Nc1ccc(I)cc1F (2.5 µM) 0
Cc1cccc([C@@H](CO)NC(=O)[C@@H](C)N2Cc3ccc(-c4nc(NC5CCOCC5)ncc4Cl)cc3C2=O)c1 [ERK1/2 inhibitor 1] (10 µM) 0
CNC(=O)c1cc(Oc2ccc(NC(=O)Nc3cc(C(C)(C)C)nn3-c3ccc4ncccc4c3)c(F)c2)ccn1 [Rebastinib] (2.5 µM) 0
CCCn1cnc2c(NCc3ccccc3)nc(NC(CC)CO)nc21 (centres undefined) [Ca2+ channel agonist 1] (2.5 µM) 0
Brc1c(Br)c(Br)c2n[nH]nc2c1Br (10 µM) 0
C=CC(=O)Nc1cccc(Nc2nc(Nc3ccc(OCCOC)cc3)ncc2F)c1 [Spebrutinib] (10 µM) 0
CC(C)=CC/C=C(\C)[C@H]1CC[C@]2(C)[C@@H]1[C@H](O)C[C@@H]1[C@@]3(C)CC[C@H](O[C@@H]4O[C@H](CO)[C@@H](O)[C@H](O)[C@H]4O[C@@H]4O[C@H](CO)[C@@H](O)[C@H](O)[C@H]4O)C(C)(C)[C@@H]3CC[C@]12C [Ginsenoside Rg5] (10 µM) 0
Cc1ncc(-c2ccnc(Nc3ccc(S(C)(=O)=O)cc3)n2)n1C(C)C (2.5 µM) 0
CN(C)CCOc1ccc(-c2nc(-c3ccncc3)c(-c3ccc4c(c3)CC/C4=N\O)[nH]2)cc1 (10 µM) 0
CCN(CCCOc1ccc2c(Nc3cc(CC(=O)Nc4cccc(F)c4)[nH]n3)ncnc2c1)CCOP(=O)(O)O [Barasertib] (10 µM) 0
C=CC(=O)N[C@H]1COC[C@H]1Nc1ncc2cc(-c3c(Cl)c(OC)cc(OC)c3Cl)c(=O)n(C)c2n1 (10 µM) 0

Gathered by group, the entries above containing a cyano group.
kinase-Nluc reporter destabilization hit call, inactive:
Cn1c(=O)n(-c2ccc(C(C)(C)C#N)cc2)c2c3cc(-c4cnc5ccccc5c4)ccc3ncc21 [Dactolisib (Tosylate)] (10 µM) 0
CC(C)(/C=C(\C#N)C(=O)N1CCC[C@@H](n2nc(-c3ccc(Oc4ccccc4)cc3F)c3c(N)ncnc32)C1)N1CCN(C2COC2)CC1 (2.5 µM) 0
